Laboratory results reported in the supplement of paper PMC12067093, “Discovery and optimisation of a covalent ligand for TRIM25 and its application to targeted protein ubiquitination” (Chemical Science, 2025).
The other results are listed elsewhere or left out.

The chains behind the UniProt entries cited, without tags or fusion partners. Where a name states a change or a piece, a line headed by the entry shows the natural chain unless it says otherwise.
UniProt Q9HD20: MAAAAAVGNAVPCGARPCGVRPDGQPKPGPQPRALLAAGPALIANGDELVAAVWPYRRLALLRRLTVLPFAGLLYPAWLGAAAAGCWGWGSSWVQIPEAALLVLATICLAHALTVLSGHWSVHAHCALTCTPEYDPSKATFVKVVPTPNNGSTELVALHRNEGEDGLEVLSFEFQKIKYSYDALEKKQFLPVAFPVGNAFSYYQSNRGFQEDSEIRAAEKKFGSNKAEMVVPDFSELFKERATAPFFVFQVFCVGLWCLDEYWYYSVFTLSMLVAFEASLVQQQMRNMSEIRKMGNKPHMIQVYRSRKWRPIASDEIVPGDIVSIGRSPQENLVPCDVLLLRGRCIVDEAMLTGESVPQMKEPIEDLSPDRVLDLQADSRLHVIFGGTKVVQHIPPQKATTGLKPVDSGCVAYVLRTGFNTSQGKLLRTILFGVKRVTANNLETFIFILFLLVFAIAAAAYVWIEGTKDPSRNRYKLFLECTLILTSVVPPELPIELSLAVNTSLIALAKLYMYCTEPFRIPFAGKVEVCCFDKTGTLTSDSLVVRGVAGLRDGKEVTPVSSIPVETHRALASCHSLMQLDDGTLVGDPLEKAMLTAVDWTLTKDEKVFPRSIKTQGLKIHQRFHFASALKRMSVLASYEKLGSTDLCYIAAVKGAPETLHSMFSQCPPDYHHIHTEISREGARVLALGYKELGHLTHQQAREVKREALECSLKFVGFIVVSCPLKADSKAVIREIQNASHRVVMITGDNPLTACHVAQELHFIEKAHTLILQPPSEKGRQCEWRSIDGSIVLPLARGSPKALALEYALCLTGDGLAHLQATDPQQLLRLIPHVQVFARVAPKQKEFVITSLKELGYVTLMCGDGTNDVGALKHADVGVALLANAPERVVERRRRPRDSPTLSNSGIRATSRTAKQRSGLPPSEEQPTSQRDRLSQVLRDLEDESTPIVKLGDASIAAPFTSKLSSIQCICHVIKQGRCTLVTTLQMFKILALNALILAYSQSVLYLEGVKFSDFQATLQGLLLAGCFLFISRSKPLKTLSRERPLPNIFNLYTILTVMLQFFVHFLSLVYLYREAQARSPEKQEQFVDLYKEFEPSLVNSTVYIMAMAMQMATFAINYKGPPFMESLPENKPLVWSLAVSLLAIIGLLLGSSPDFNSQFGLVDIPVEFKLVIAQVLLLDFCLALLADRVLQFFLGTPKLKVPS
UniProt Q9BZE9, whole entry, looked up: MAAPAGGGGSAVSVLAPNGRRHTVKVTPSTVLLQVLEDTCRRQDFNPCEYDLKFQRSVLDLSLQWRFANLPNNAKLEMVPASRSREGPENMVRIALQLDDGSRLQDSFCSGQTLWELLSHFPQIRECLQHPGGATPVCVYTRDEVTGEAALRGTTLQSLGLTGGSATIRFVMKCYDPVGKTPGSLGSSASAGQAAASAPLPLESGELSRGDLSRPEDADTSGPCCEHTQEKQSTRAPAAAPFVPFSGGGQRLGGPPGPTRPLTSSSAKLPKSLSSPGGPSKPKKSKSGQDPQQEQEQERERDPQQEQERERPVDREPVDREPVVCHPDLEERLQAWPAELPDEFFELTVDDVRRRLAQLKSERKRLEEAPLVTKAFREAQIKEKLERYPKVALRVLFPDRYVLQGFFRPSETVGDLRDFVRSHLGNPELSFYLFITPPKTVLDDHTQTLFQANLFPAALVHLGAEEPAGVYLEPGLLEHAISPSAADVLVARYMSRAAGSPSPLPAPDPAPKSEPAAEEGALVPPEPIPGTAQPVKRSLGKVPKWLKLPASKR
UniProt P23634: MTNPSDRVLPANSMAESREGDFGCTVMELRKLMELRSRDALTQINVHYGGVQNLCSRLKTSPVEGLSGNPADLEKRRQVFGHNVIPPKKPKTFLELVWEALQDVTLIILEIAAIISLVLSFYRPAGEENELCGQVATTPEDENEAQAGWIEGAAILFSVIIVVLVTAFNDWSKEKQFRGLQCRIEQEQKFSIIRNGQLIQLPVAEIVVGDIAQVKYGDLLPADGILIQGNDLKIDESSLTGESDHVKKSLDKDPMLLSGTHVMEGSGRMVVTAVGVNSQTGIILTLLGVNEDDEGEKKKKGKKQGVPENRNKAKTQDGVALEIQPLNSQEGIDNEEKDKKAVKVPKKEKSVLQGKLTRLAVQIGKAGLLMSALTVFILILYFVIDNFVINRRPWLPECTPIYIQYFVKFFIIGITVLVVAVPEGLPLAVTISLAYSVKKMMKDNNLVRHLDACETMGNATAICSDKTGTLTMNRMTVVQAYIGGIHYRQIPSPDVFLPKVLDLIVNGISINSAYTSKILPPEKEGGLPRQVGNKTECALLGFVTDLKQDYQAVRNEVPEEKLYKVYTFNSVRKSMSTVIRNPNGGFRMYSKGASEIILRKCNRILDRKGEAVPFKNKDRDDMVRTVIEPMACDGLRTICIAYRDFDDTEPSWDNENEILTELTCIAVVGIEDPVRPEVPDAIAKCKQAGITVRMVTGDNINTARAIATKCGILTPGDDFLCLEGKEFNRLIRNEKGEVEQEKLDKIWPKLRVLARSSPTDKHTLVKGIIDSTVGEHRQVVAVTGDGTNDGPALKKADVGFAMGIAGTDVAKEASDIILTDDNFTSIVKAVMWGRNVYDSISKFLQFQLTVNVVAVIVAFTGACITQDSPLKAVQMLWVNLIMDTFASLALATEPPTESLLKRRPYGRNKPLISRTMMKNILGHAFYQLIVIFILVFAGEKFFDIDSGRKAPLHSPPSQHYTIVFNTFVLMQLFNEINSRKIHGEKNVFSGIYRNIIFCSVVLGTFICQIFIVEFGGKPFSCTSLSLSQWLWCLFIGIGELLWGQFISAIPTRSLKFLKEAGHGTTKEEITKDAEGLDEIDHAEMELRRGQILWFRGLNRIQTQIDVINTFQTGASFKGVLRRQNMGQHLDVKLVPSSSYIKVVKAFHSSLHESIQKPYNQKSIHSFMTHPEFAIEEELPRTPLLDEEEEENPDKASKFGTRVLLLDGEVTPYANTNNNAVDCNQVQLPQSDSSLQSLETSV
UniProt Q6UW56: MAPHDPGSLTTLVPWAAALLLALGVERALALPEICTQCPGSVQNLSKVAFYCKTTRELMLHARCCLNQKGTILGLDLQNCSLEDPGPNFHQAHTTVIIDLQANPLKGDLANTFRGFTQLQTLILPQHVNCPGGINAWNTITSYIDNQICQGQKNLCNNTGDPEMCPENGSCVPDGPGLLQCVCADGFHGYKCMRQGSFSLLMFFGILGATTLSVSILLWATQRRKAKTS
UniProt P16615: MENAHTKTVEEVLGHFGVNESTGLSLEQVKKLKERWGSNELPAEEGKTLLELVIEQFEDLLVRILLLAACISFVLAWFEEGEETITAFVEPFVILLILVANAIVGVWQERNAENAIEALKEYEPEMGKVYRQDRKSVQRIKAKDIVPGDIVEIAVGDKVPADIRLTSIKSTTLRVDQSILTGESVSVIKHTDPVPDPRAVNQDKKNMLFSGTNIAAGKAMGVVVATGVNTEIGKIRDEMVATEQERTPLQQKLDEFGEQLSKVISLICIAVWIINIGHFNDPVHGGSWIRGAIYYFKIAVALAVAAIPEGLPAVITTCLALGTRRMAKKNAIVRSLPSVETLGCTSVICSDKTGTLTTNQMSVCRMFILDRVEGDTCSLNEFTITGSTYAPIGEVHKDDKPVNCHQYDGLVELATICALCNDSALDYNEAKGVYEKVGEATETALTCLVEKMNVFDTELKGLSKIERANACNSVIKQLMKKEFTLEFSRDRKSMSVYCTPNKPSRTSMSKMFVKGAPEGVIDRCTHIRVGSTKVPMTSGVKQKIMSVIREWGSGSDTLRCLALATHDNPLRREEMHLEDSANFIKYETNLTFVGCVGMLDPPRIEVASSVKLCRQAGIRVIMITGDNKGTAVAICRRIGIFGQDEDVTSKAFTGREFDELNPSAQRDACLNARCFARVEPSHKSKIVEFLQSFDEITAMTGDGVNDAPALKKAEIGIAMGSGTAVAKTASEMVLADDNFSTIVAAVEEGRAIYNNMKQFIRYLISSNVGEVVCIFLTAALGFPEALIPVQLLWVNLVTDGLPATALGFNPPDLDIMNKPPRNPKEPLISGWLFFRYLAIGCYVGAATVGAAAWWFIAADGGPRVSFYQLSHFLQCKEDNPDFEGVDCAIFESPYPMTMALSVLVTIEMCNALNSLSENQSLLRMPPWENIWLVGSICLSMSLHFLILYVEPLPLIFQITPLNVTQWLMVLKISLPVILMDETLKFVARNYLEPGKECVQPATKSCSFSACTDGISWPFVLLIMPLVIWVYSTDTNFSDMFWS
UniProt P31939: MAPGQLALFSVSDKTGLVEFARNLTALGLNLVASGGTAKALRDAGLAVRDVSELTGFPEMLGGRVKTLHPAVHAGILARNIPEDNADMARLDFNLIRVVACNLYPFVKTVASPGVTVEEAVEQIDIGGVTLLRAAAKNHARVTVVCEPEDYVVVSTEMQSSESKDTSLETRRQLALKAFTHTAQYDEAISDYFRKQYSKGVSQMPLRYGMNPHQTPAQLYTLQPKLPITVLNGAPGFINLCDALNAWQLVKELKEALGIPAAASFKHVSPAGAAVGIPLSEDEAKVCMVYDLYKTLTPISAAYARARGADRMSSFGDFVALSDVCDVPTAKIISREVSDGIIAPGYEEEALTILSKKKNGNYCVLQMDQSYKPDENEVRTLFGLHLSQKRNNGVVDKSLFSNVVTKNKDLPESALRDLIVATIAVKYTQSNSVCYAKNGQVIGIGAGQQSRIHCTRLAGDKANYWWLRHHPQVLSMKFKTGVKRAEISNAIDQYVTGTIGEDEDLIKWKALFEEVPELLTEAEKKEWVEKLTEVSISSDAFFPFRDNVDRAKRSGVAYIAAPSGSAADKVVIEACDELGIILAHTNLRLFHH
UniProt O43681: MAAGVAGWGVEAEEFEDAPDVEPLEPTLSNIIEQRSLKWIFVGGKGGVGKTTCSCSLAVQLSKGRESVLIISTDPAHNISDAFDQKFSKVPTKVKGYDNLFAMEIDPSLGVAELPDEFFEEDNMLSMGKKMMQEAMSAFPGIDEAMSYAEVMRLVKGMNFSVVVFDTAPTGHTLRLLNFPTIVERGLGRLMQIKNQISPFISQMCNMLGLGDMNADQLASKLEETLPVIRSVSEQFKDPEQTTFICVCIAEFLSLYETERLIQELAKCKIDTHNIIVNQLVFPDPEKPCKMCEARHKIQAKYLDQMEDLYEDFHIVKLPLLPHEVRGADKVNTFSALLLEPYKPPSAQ
UniProt Q6PL18: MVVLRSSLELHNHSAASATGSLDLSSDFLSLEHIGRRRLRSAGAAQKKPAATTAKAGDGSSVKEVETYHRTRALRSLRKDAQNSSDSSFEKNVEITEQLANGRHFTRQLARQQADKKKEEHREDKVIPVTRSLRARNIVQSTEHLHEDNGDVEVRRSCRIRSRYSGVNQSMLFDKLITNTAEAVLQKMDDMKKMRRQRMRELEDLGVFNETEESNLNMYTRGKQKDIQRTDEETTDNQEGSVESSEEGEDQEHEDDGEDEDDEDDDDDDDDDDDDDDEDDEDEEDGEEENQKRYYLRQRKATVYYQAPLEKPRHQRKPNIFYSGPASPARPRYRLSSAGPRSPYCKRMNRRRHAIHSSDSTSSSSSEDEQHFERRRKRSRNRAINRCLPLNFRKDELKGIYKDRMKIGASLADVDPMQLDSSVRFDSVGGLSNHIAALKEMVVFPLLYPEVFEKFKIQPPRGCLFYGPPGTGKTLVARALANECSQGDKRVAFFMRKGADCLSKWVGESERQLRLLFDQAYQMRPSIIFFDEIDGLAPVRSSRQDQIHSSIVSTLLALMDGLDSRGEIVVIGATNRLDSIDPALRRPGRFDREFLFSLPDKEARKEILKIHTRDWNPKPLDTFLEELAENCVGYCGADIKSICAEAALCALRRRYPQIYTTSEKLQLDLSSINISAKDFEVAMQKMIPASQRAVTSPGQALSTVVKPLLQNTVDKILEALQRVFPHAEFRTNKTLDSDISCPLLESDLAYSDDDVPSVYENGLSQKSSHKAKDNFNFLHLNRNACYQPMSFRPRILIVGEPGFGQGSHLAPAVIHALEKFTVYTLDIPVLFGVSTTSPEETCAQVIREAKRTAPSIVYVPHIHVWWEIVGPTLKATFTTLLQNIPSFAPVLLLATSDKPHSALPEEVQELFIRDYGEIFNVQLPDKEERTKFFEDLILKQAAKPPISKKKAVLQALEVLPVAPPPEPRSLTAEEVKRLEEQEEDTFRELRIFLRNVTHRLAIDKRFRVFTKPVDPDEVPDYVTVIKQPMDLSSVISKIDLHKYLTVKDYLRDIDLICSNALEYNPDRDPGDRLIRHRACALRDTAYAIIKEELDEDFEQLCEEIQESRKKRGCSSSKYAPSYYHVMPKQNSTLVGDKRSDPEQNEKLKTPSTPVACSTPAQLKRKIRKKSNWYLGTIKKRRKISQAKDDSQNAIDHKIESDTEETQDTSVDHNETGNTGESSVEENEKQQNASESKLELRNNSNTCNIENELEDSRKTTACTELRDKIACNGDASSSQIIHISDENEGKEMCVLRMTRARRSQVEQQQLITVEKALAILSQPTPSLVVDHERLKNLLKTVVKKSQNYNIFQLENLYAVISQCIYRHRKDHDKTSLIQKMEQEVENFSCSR

Compound: CC1Cc2ccccc2N1C(=O)C1CCCN(C1)C(=O)CCl (mixture of isomers) [TRIM25 ligand 11 (diastereomer mixture)]
Test: probe-labelled cysteine peptide fold change vs DMSO (competition) (log2 fold change); higher = less target engagement (more negative = stronger competition)
Settings: THP-1, incubation time: 4 h
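Note: competitive chemoproteomic profiling in live THP-1 cells with an iodoacetamide desthiobiotin (IA-DTB) probe, comparing probe-labelled peptide intensities in compound-treated cells against DMSO-treated controls.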

| Target | probe-labelled cysteine peptide fold change (10 µM) | probe-labelled cysteine peptide fold change (50 µM) |
| --- | --- | --- |
| ATP2C1_P98194_348_KLPIVETLGCCNVICSDK (UniProt P98194) | 0.0821 | 0.175 |
| ATP1A1_P05023_518_CSSILLHGK (UniProt P05023) | 0.069 | -0.0195 |
| ATP6V1H_Q9UI12_73_QEMLQTEGSQCAK (UniProt Q9UI12) | -0.154 | -0.0754 |
| ATP2A3_Q93084_581_KEDMELDDCSK (UniProt Q93084) | -0.00739 | -0.197 |
| ATRX_P46100_1531_CPITTK (UniProt P46100) | -0.0708 | -0.241 |
| ATRN_O75882_1361_PIALEPCFGNK (UniProt O75882) | 0.0504 | -0.0913 |
| ASPH_Q12797_384_AQCEDDLAEK (UniProt Q12797) | 0.021 | 0.0357 |
| ATP13A1_Q9HD20_648_LGSTDLCYIAAVK (UniProt Q9HD20) | 0.0558 | 0.0185 |
| ASPSCR1_Q9BZE9_224+225_GDLSRPEDADTSGPCCEHTQEK (UniProt Q9BZE9) | -0.0438 | -0.488 |
| ATG7_O95352_235_ITIGVYDPCNLAQYPGWPLR (UniProt O95352) | -0.382 | 0.356 |
| ATP2B4_P23634_537_TECALLGFVTDLK (UniProt P23634) | -0.034 | -0.163 |
| ATP6V0A1_Q93050_58_RCEEMDR (UniProt Q93050) | 0.0489 | 0.118 |
| ATP13A1_Q9HD20_862_ELGYVTLMCGDGTNDVGALK (UniProt Q9HD20) | 0.0278 | -0.2 |
| ATRN_O75882_101_ECDRPCVNGGR (UniProt O75882) | 0.134 | 0.0931 |
| ASPSCR1_Q9BZE9_127+138_ECLQHPGGATPVCVYTR (UniProt Q9BZE9) | 0.0385 | 0.00452 |
| ASXL2_Q76L83_827_ATATVASVSHPQGPSSCR (UniProt Q76L83) | 0.237 | 0.075 |
| ATRAID_Q6UW56_52_VAFYCK (UniProt Q6UW56) | 0.0122 | 0.0598 |
| ATP2A2_P16615_447_VGEATETALTCLVEK (UniProt P16615) | 0.0202 | 0.0778 |
| ATG4B_Q9Y4P1_323_MSIAELDPSIAVGFFCK (UniProt Q9Y4P1) | -0.107 | 0.00193 |
| ATG5_Q9H1Y0_115_DLLHCPSK (UniProt Q9H1Y0) | -0.0506 | – |
| ATL3_Q6DD88_262_NHIHSCFSDVTCFLLPHPGLQVATSPDFDGK (UniProt Q6DD88) | 0.0291 | 0.0346 |

| Target | probe-labelled cysteine peptide fold change (10 µM) | probe-labelled cysteine peptide fold change (50 µM) |
| --- | --- | --- |
| ATP1B1_P05026_213_YNPNVLPVQCTGK (UniProt P05026) | 0.107 | 0.0303 |
| ATP2B4_P23634_24_EGDFGCTVMELR (UniProt P23634) | -0.0564 | -0.213 |
| ATP2A2_P16615_560_CLALATHDNPLR (UniProt P16615) | 0.0746 | -0.0253 |
| ATIC_P31939_575_VVIEACDELGIILAHTNLR (UniProt P31939) | 0.0127 | 0.0172 |
| ASCC3_Q8N3C0_1535_QMGLFNFRPSVRPVPLEVHIQGFPGQHYCPR (UniProt Q8N3C0) | 0.117 | -0.0767 |
| ASNA1_O43681_55_TTCSCSLAVQLSK (UniProt O43681) | 0.0423 | 0.0978 |
| ASS1_P00966_331_FAELVYTGFWHSPECEFVR (UniProt P00966) | 0.0803 | 0.0505 |
| ATP2B4_P23634_24_EGDFGCTVMELRK (UniProt P23634) | -0.361 | -0.428 |
| ATAD1_Q8NBU5_359_DAAFQNVLTHVCLD (UniProt Q8NBU5) | -0.0942 | 0.00918 |
| ATAD2_Q6PL18_463_GCLFYGPPGTGK (UniProt Q6PL18) | -0.0098 | 0.0526 |
| ARPC1B_O15143_342_CSQFCTTGMDGGMSIWDVK (UniProt O15143) | 0.0489 | -0.0336 |
| ATIC_P31939_287_VCMVYDLYK (UniProt P31939) | 0.0131 | 0.0482 |
| ATAD2B_Q9ULI0_100_QPDSVCK (UniProt Q9ULI0) | 0.243 | 0.281 |
| ATP1B3_P54709_191_IDCVSK (UniProt P54709) | -0.07 | 0.0783 |
| ATP2A2_P16615_471_ANACNSVIK (UniProt P16615) | -0.15 | -0.036 |
| ATG3_Q9NT62_259+264_TVTIENHPHLPPPPMCSVHPCR (UniProt Q9NT62) | -0.0491 | -0.27 |
| ATP1A1_P05023_249_NIAFFSTNCVEGTAR (UniProt P05023) | -0.0568 | -0.0911 |
| ARRB2_P32121_270_CPVAQLEQDDQVSPSSTFCK (UniProt P32121) | 0.677 | 0.57 |
| ASPSCR1_Q9BZE9_127_ECLQHPGGATPVCVYTR (UniProt Q9BZE9) | 0.0747 | 0.143 |
| ATOX1_O00244_41_KVCIESEHSMDTLLATLK (UniProt O00244) | -0.0277 | -0.224 |
| AR_P10275_602_NDCTIDK (UniProt P10275) | -0.064 | -0.0782 |

An excerpt of these results, as tab-separated lines.
Target	probe-labelled cysteine peptide fold change (10 µM)	probe-labelled cysteine peptide fold change (50 µM)
ATAD2_Q6PL18_463_GCLFYGPPGTGK (UniProt Q6PL18)	-0.0098	0.0526
ARPC1B_O15143_342_CSQFCTTGMDGGMSIWDVK (UniProt O15143)	0.0489	-0.0336
ATIC_P31939_287_VCMVYDLYK (UniProt P31939)	0.0131	0.0482
